37 compounds from PubChem BioAssay AID2685 (National Center for Advancing Translational Sciences (NCATS), 2010) can be followed below.

Broadly, the AC50 is the midpoint of the concentration-response curve, whichever way the signal moves.

The assay can be described thus: qHTS Assay for Lipid Storage Modulators in Drosophila S3 Cells.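 For cell number change: cells counted by Cell Tracker Red CMTPX staining in the red channel.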 The following applies: BODIPY lipid droplet fluorescence, 18-24 h; for cell number change: measured here: cell count max response, cells fed with added oleic acid. In a few lines:
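Drosophila S3 cells loaded with oleic acid (400 uM, as added) and compounds at several concentrations; lipid droplets imaged by 488-nm laser-scanning cytometry, 500–530 nm intensity and object ratio to cell channel. Percent activity normalized to 20 uM Triacsin C.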

Where [1] appears, read: measured here: cell number channel AC50, cells fed with added oleic acid.
Setting [2] is: measured here: lipid fluorescence (Fed channel) AC50, cells fed with added oleic acid.

Each structure is given as a SMILES string. Some of the results follow. These are further read-outs of the screen, such as a control signal, another cell line or another target. No call is given for them. Most of these compounds were active or inconclusive in the main read-out, so they are no random draw. Potencies come from curve fits of mixed quality, noted in brackets.

For the compound `CCN(CC)CCNC(=O)CNC(=O)c1nn(-c2ccc(OC)c(OC)c2)c(=O)c2ccccc12`, the cell number change was -20.7%. Besides, under setting [1], the AC50 is 0.103 µM [falling, full curve, poor fit]. For the same compound, the AC50 under setting [2] was 6.51 µM [falling, single point].

Turning to `Cc1cccc(Nc2ncnc3onc(-c4cccc(Cl)c4)c23)c1`, the cell number change was 17.8%. In the case of `Cc1ccc(NC(=O)C2COc3ccccc3O2)nc1` (configuration not stated), the cell number change came to 102%. For the same compound, the concentration at half-maximal activity (AC50) under setting [1] was 29.1 µM [rising, single point]. Moreover, the AC50 under setting [2] is 23.1 µM [rising, single point]. `CCOC(=O)C1CCCN(C(=O)/C=C/c2ccccc2[N+](=O)[O-])C1` (configuration not stated): the cell number change was -15.6%. The half-maximal activity concentration (AC50) under setting [2] was 6.51 µM [falling, single point]. On to `Cc1ccc(N(CC(=O)NCC2CCCO2)C(=O)CNS(=O)(=O)c2ccc(Cl)cc2)cc1` (configuration not stated), for which the cell number change was -7.69%. In the case of `CCC1CCC(C(=O)NNC(=O)c2cc(-c3ccco3)[nH]n2)CC1` (configuration not stated), the cell number change is 2.32%. For the same compound, the AC50 under setting [2] is 0.291 µM [falling, partial curve, poor fit]. Consider `COc1ccc(N(C)S(=O)(=O)c2ccc3c(c2)CC(C)N3C(=O)C2CC2)c(OC)c1` (configuration not stated), for which the cell number change is -23.9%. Also, the AC50 under setting [2] was 29.1 µM [falling, partial curve]. As to `COc1ccc(N2C(=O)CC(N3CCN(c4ccc(Cl)cc4)CC3)C2=O)cc1` (configuration not stated), the cell number change was -0.365%. For the compound `CC(=O)Nc1cccc(C(=O)/C=C/c2ccc(F)cc2)c1`, the cell number change is -36.9%. The AC50 under setting [1] was 23.1 µM [falling, single point]. The AC50 under setting [2] is 29.1 µM [falling, single point].

Regarding `NC(=O)C1CCCCc2c1[nH]c1ccc(Cl)cc21` (configuration not stated), the cell number change is -19.9%. For the same compound, the half-maximal activity concentration (AC50) under setting [2] was 29.1 µM [falling, single point].

As for `O=C(COC(=O)c1cc(S(=O)(=O)N2CCCCC2)ccc1N1CCOCC1)c1ccccc1`, the cell number change was 2.99%. As to `Cn1c(NNC(=O)C(c2ccccc2)c2ccccc2)cc(=O)n(C)c1=O`, the cell number change is 35.4%. Also, the AC50 under setting [1] is 3.66 µM [rising, full curve]. Further, the AC50 under setting [2] was 4.61 µM [rising, full curve, poor fit]. `c1ccc(-c2cc(-c3ccccc3)n3ncnc3n2)cc1`: the cell number change is -0.686%. With `COC(OC)c1nc(SCC(=O)Nc2cccc(Cl)c2)ncc1C(=O)O`, the cell number change is -28.7%. Moreover, the AC50 under setting [2] is 4.11 µM [falling, single point]. For the compound `COc1cccc(C(=O)N2CCCN(C)CC2)c1OC`, the cell number change was determined as 29.3%. The half-maximal activity concentration (AC50) under setting [2] was 20.6 µM [rising, single point]. `COc1ccc2cc(CN(Cc3cccnc3)S(=O)(=O)c3ccccc3)c(=O)[nH]c2c1`: the cell number change was 41.3%. The AC50 under setting [1] is 13 µM [rising, single point]. Under setting [2], the AC50 is 4.61 µM [rising, full curve].

For the compound `COCCNC(=O)C1CCCN(S(=O)(=O)c2ccc3c(c2)CC(C)N3C(=O)C2CC2)C1` (configuration not stated), the cell number change was 20.7%. Also, the concentration at half-maximal activity (AC50) under setting [2] was 6.51 µM [rising, single point]. Turning to `Cc1cc2oc(=O)cc(CN3CCCCC3C)c2c(C)c1Cl` (configuration not stated), the cell number change was found to be 9.25%. With `CCOC(=O)/C(=C/c1ccc(OC(=O)c2ccccc2)cc1)C(C)=O`, the concentration at half-maximal activity (AC50) is 0.651 µM [rising, full curve, poor fit] under setting [1] and 0.366 µM [rising, full curve] under setting [2]. In the case of `CCn1nc(C)c(CNC(=O)c2cc(COc3ccc(F)cc3Cl)on2)c1C`, the cell number change is -28.7%. Under setting [2], the AC50 was 4.61 µM [falling, full curve]. With `CCN(CC(=O)Nc1ccc(NC(C)=O)cc1)C(=O)/C=C/c1ccc([N+](=O)[O-])cc1`, the cell number change is 3.09%. In addition, the concentration at half-maximal activity (AC50) under setting [1] was 0.231 µM [falling, partial curve, poor fit]. Take `O=[N+]([O-])c1ccc(N2CCc3ccccc3C2)cc1`: the cell number change was determined as 29%. Moreover, the half-maximal activity concentration (AC50) under setting [2] is 0.116 µM [rising, partial curve, poor fit]. `COC(=O)c1cc(C)sc1NC(=O)CCCC(=O)O`: the cell number change was 1.82%. Also, the AC50 under setting [2] was 1.03 µM [rising, full curve, poor fit]. Regarding `COc1ccccc1N(C)S(=O)(=O)c1ccc(C(=O)NNC(=O)c2ccccc2O)cc1`, the cell number change was -42.5%. Further, the AC50 under setting [1] was 8.2 µM [falling, partial curve, poor fit]. As for `COc1ccc(S(=O)(=O)N(C)CC(=O)Nc2ccc3c(c2)OCCO3)cc1OC`, the cell number change is -9.33%. In addition, the AC50 under setting [2] is 1.3 µM [rising, partial curve]. With `COc1ccc(S(=O)(=O)N2CCCC2CNC(=O)C(=O)NC2CCCCCC2)cc1` (configuration not stated), the cell number change was determined as 49.2%. Moreover, the concentration at half-maximal activity (AC50) under setting [1] is 9.2 µM [rising, partial curve, poor fit]. In the case of `CCOc1cccc(OCCCNCCCOC)c1`, the cell number change is -2.45%. In the case of `O=[n+]1cc(-c2cc3ccccc3o2)n([O-])c2c1CCCC2`, the cell number change was -19.9%. The half-maximal activity concentration (AC50) under setting [1] was 0.82 µM [falling, full curve, poor fit]. The concentration at half-maximal activity (AC50) under setting [2] was 4.61 µM [falling, full curve, poor fit].

In the case of `O=C(NCCCN1CCCCC1)C1CCC(=O)N1CCc1ccccc1` (configuration not stated), the cell number change is -3.16%. Also, under setting [2], the AC50 was 0.651 µM [rising, single point]. Consider `COc1cc(C(=O)NNC(=O)COc2ccc(C)cc2)ccc1OCC(=O)N1CCOCC1`, for which the cell number change stood at 7.65%. Also, under setting [2], the AC50 was 6.51 µM [falling, single point].

As to `O=C(c1cc(-c2cccs2)nn1-c1ccccc1)N1CCN(S(=O)(=O)c2ccccc2)CC1`, the AC50 under setting [1] is 2.59 µM [rising, single point].

On to `O=C(CSc1n[nH]c(-c2cccs2)n1)N1CCCCC1`, for which the AC50 under setting [2] was 0.0206 µM [falling, full curve, poor fit].

As to `Cn1c(CN2CCOCC2)nnc1SCC(=O)Nc1nccs1`, the cell number change was determined as 22.9%. For `O=C(NCCCN=C1NS(=O)(=O)c2ccccc21)c1ccc(F)cc1`, the cell number change is -37.1%. Further, under setting [1], the AC50 was 13 µM [falling, partial curve, poor fit]. Moreover, under setting [2], the AC50 was 11.6 µM [falling, single point].

As to `CCOC(=O)Cc1csc(NC(=O)CCNS(=O)(=O)c2ccc3c(c2)CCC(=O)N3)n1`, the cell number change is -34.9%. For the same compound, the half-maximal activity concentration (AC50) under setting [1] was 29.1 µM [falling, single point].

In the case of `COc1ccccc1N(CC(=O)NC1CCCC1)C(=O)C1(C)CC(=O)N=C2C=CC(C)=CN21` (configuration not stated), the cell number change is -11.1%. The AC50 under setting [2] was 0.58 µM [rising, single point]. `Cn1c(-c2cccs2)[n+](C)c2ccccc21`: the cell number change worked out at 25.2%. In addition, under setting [1], the AC50 is 0.461 µM [rising, full curve, poor fit]. In addition, the AC50 under setting [2] is 2.59 µM [rising, partial curve, poor fit].
